Measurements published in patent US20210213010A1, “TLR7/8 AGONISTS AND LIPOSOME COMPOSITIONS” (Torque Therapeutics, Inc., priority 2018, published 2021).
For some of these results: For at least one compound, name, drawing or mass did not settle the structure. Some of these results come from one statement about several compounds together.

Key:
[1] = Remote loading efficiency of small molecules into liposomes (PD-10 size exclusion, HPLC); format: physicochemical
Description: A solution of the small molecule (modified TLR agonist) was lyophilized in a vial equipped with a magnetic stir bar over night to form a fluffy white powder. This powder was added either formulation F1 or F2 to the wanted drug/lipid ratio. The resulting mixture was stirred at 55° C. or 41° C. for formulation F1 and F2 respectively for 3h, then allowed to cool to rt before the solutions were refrigerated and stored at 4° C.
Remote loading efficiency was determined at 1 h and 3 h by taking out 100 μL of the mixture and applying this and 900 μL buffer (25 mM HEPES, 10 vol % sucrose buffer, pH 7.4) to a PD-10 column size exclusion column. Following, 10×1 mL fractions were collected, and the small molecule compound concentrations in the loading mixture and in the liposome containing fractions were determined on analytical HPLC. Loading efficiency was calculated as percentage of molecules found in liposome containing fractions out of the applied amount. The general procedure for the small molecule remote loading is visualized in FIG. 3. The general concept of remote loading imidazoquinolines in liposomes that are dialyzed against HEPES is visualized in FIG. 4.

whole human blood [2] = assay: IL-6 cytokine expression in stimulated whole human blood (ELISA); format: cell-based; conditions: free small molecule; 10, 1, 0.1 μM; 24 h; two donors
Description: (§1) This example describes the general procedure used to assess the level of cytokine IL-6 and IL-12p40 expressions upon stimuli of whole human blood with small molecules or small molecules in liposomal formulations F1 and F2. 10 mM DMSO solutions of the small molecules were diluted in RPMI media (RPMI-1640, Sigma Aldrich) with 1% penicillin/streptomycin (p/s). […], of each dilution was transferred to Nunc™ 96-Well Polystyrene Conical Bottom MicroWell™ Plates in duplicates. Blood was drawn from two human donors, diluted in RPMI with 1% p/s and added to each well to reach final concentrations of 10 μM, 1 μM, and 0.1 μM of the small molecules. The plates were incubated at 37° C. in a cell incubator for 24h. The plates were then spun down in a plate centrifuge with 3200 revolutions per minute (rpm) for 10 min before 50 uL of the supernatant was transferred to new 96-well plates. The supernatant samples were subsequently stored at −80° C. until the day of cytokine measurements.
(§2) The level of cytokine expression was measured using either an IL-6 ELISA Kit (RnDSystems, cat #DY206) for IL-6, or an IL-12p40 ELISA Kit (RnDSystems, cat #DY1240) according to the manufacturer's protocols. This general procedure was used to generate the examples 24-33.

whole human blood [3] = assay: IL-12p40 cytokine expression in stimulated whole human blood (ELISA); format: cell-based; conditions: free small molecule; 10, 1, 0.1 μM; 24 h; two donors
Description: as §1, §2

[4] = formulation F3, drug/lipid ratio 0.25, time not specified
[5] = formulation F3, drug/lipid ratio 0.1, time not specified (within 3 h)

| SMILES | Loading efficiency [1, 4] | Loading efficiency [1, 5] | Expression of IL-6 upon stimulation of whole human blood (whole human blood [2]) | Expression of IL-12p40 upon stimulation of whole human blood (whole human blood [3]) |
| --- | --- | --- | --- | --- |
| CCCCc1nc2c(N)nc3ccccc3c2n1Cc1ccc(CN)cc1 [MK130, 1-(4-(aminomethyl)benzyl)-2-butyl-1H-imidazo[4,5-c]quinolin-4-amine] | below 70% | – | – | – |
| CCCCc1nc2c(N)nc3ccccc3c2n1Cc1ccc(CNC(=O)[C@@H](N)CC(N)=O)cc1 [MK135, (S)-2-amino-N-(4-((4-amino-2-butyl-1H-imidazo [4,5-c]quinolin-1-yl)methyl)benzyl)succinamide] | below 70% | above 85% | – | – |
| CCCCc1nc2c(N)nc3ccccc3c2n1Cc1ccc(CNC(=O)[C@H](C)N)cc1 [MK137, (S)-2-amino-N-(4-((4-amino-2-butyl-1H-imidazo[4,5-c]quinolin-1-yl)methyl)benzyl)propanamide] | – | above 95% | – | – |
| CCCCc1nc2c(N)nc3ccccc3c2n1Cc1ccc(CNC(=O)[C@@H]2CCCN2)cc1 [MK140, (S)—N-(4-((4-amino-2-butyl-1H-imidazo[4,5-c]quinolin-1-yl)methyl)benzyl)pyrrolidine-2-carboxamide] | – | above 95% | – | – |
| CCOCc1nc2c(N)nc3ccccc3c2n1CC(C)(C)O [R848, Resiquimod, reference compound] | – | – | dose dependent expression of IL-6 | dose dependent expression of IL-12p40 |
